Data as given in PubChem BioAssay AID504793 (Drosophila RNAi Screening Center, 2011).
Aim: 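Knock-downs allowing continued mitosis even though DNA is damaged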 (primary screen). Cells: Drosophila S2R+ cells. Knock-down reagent: long dsRNA against Drosophila genes, about 0.25 µg dsRNA per well. Time to read-out: 4 days of dsRNA, then 4 hours of drug before read-out. Conditions: doxorubicin 0.5 µM for 4 hours to cause double-strand breaks, in cells also given a low, harmless dose of dsRNA against nbs to sensitise the assay. Detection: 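Per-well count of mitotic cells stained for phospho-histone H3 after doxorubicin exposure, used as mitotic index; counts are raw and not normalised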. Direction: mitotic cells: higher = more cells in mitosis, weaker G2 arrest. Rule for the call: 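Genes are called active only when high mitotic counts were reproduced with independent dsRNAs and mitosis was checked for delay without damage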. Calls: active = confirmed in follow-up tests; inactive = not confirmed.
The screen tested about 23,000 reagents; shown is an unselected part of those that have a named target and a result. Over the whole deposit, 62 (0.27%) got an active call. 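Calls come from follow-up tests whose scores are not deposited, so confirmed genes may have low counts here; counts are not normalised per plate.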 Raw values are not corrected between plates. Entries without a mark were called inactive. Names joined by + are all predicted targets of the reagent.

| gene knocked down | amplicon | mitotic cells, replicate 1 |
| --- | --- | --- |
| CG13380 + CG4174 | DRSC09988 | 12 |
| CG13380 + CG4174 | DRSC10406 | 6 |
| Pmm2 (GeneID 39436) | DRSC09780 | 5 |
| Pmm2 (GeneID 39436) | DRSC28987 | 5 |
| CSN3 (GeneID 40308) | DRSC11859 | 5 |
| CSN3 (GeneID 40308) | DRSC25919 | 14 |
| beta-Spec (GeneID 32746) | DRSC20311 | 6 |
| zf30C (GeneID 34292) | DRSC03641 | 6 |
| CG17108 (GeneID 34471) | DRSC02576 | 6 |
| CG17108 (GeneID 34471) | DRSC22214 | 9 |
| CG17108 (GeneID 34471) | DRSC25301 | 2 |
| TwdlT (GeneID 44790) | DRSC21540 | 4 |
| ru (GeneID 44856) | DRSC08258 | 3 |
| ru (GeneID 44856) | DRSC28529 | 7 |
| Os-C (GeneID 40942) | DRSC16778 | 11 |
| Os-C (GeneID 40942) | DRSC27993 | 5 |
| APC10 (GeneID 36975) | DRSC06071 | 45 |
| CG40006 (GeneID 3355123) | DRSC03787 | 4 |
| CG40006 (GeneID 3355123) | DRSC03809 | 1 |
| CG40006 (GeneID 3355123) | DRSC03814 | 9 |
| CG40006 (GeneID 3355123) | DRSC03817 | 7 |
| TBC1D23 (GeneID 33289) | DRSC00657 | 6 |
| TBC1D23 (GeneID 33289) | DRSC30084 | 4 |
| CG32507 (GeneID 318060) | DRSC20421 | 5 |
| CG9254 (GeneID 34773) | DRSC01969 | 6 |
| mthl15 (GeneID 318914) | DRSC01120 | 6 |
| LanB2 (GeneID 39118) | DRSC11208 | 6 |
| CG31213 (GeneID 42382) | DRSC14312 | 7 |
| CG31213 (GeneID 42382) | DRSC15647 | 7 |
| Kaz1-ORFB + Kaz1-ORFA | DRSC08669 | 10 |
| CG5021 (GeneID 39025) | DRSC10469 | 6 |
| CG31274 + MESK4 | DRSC13202 | 1 |
| Dlish (GeneID 37014) | DRSC06016 | 10 |
| l(3)76BDm (GeneID 40140) | DRSC11047 | 7 |
| vih (GeneID 44118) | DRSC09778 | 390 |
| vih (GeneID 44118) | DRSC23625 | 176 |
| FASN1 (GeneID 33524) | DRSC00268 | 11 |
| FASN1 (GeneID 33524) | DRSC26498 | 9 |
| Lime (GeneID 36023) | DRSC06752 | 9 |
| ctp (GeneID 31405) | DRSC18758 | 17 |
| ctp (GeneID 31405) | DRSC25165 | 11 |
| Uros2 (GeneID 41908) | DRSC16505 | 3 |
| HP1b (GeneID 31834) | DRSC18418 | 9 |
| HP1b (GeneID 31834) | DRSC29826 | 14 |
| CG15459 (GeneID 33036) | DRSC20530 | 14 |
| CG15459 (GeneID 33036) | DRSC21383 | 8 |
| CG15459 (GeneID 33036) | DRSC27861 | 9 |
| Cyp6a16Psi (retired record) (GeneID 3772661) | DRSC03307 | 3 |
| CG42367 (GeneID 318998) | DRSC21388 | 5 |
| CG42367 (GeneID 318998) | DRSC24728 | 12 |
| CG42566 (GeneID 8674120) | DRSC03949 | 6 |
| CNBP (GeneID 37646) | DRSC04116 | 3 |
| CNBP (GeneID 37646) | DRSC21317 | 9 |
| CNBP (GeneID 37646) | DRSC29556 | 8 |
| Nup205 (GeneID 33002) | DRSC19432 | 2 |
| mlt (GeneID 36072) | DRSC06120 | 2 |
| mlt (GeneID 36072) | DRSC27515 | 7 |
| Gyc32E (GeneID 34553) | DRSC01154 | 10 |
| Gyc32E (GeneID 34553) | DRSC29757 | 13 |
| Tret1-2 (GeneID 36249) | DRSC07117 | 4 |
| Tret1-2 (GeneID 36249) | DRSC28985 | 7 |
| Wdr37 (GeneID 42218) | DRSC14500 | 11 |
| Gnpat (GeneID 53586) | DRSC16960 | 9 |
| Khc-73 (GeneID 36718) | DRSC07449 | 5 |
| Khc-73 (GeneID 36718) | DRSC26819 | 9 |
| CG4502 (GeneID 34002) | DRSC23237 | 10 |
| Sox102F (GeneID 43844) | DRSC17204 | 10 |
| Sox102F (GeneID 43844) | DRSC25915 | 6 |
| CG7091 (GeneID 41590) | DRSC12944 | 34 |
| CG7091 (GeneID 41590) | DRSC16197 | 5 |
| Tim10 + CG42497 | DRSC04664 | 5 |
| mab-21 (GeneID 44127) | DRSC18791 | 11 |
| mab-21 (GeneID 44127) | DRSC26005 | 3 |
| CG6664 (GeneID 39903) | DRSC10690 | 5 |
| CG6664 (GeneID 39903) | DRSC25430 | 7 |
| GILT2 (GeneID 42788) | DRSC14196 | 10 |
| bsk (GeneID 44801) | DRSC03499 | 6 |
| Sptr (GeneID 31781) | DRSC18719 | 6 |
| Vha100-4 (GeneID 42214) | DRSC16282 | 11 |
| Vha100-4 (GeneID 42214) | DRSC26139 | 8 |
| CG6873 (GeneID 32861) | DRSC20014 | 4 |
| CG1421 (GeneID 35432) | DRSC03707 | 7 |
| ATPsyndelta (GeneID 31950) | DRSC18248 | 10 |
| hrg (GeneID 49636) | DRSC07502 | 9 |
| net (GeneID 45339) | DRSC00309 | 6 |
| gskt (GeneID 318552) | DRSC14056 | 5 |
| gskt (GeneID 318552) | DRSC25861 | 4 |
| trp (GeneID 43542) | DRSC17088 | 13 |
| CG12826 (GeneID 35710) | DRSC06175 | 3 |
| Rab19 (GeneID 38930) | DRSC11260 | 4 |
| Rab19 (GeneID 38930) | DRSC29485 | 3 |
| CG4009 (GeneID 42054) | DRSC15536 | 7 |
| a5 (GeneID 33317) | DRSC00798 | 6 |
| Or65a (GeneID 318011) | DRSC08808 | 3 |
| qvr (GeneID 2768718) | DRSC05280 | 4 |
| Tnks (GeneID 43095) | DRSC14154 | 19 |
| Drsl2 (GeneID 38408) | DRSC08160 | 4 |
| Drsl2 (GeneID 38408) | DRSC25541 | 9 |
| KFase (GeneID 33907) | DRSC03258 | 2 |
| KFase (GeneID 33907) | DRSC30035 | 4 |
| CG6333 (GeneID 39953) | DRSC10626 | 7 |
| CG11570 (GeneID 39357) | DRSC09844 | 5 |
| exd (GeneID 32567) | DRSC20330 | 19 |
| exd (GeneID 32567) | DRSC30099 | 1 |
| CG31776 (GeneID 33568) | DRSC00716 | 4 |
| Npl4 (GeneID 43091) | DRSC15615 | 18 |
| Npl4 (GeneID 43091) | DRSC15616 | 30 |
| CtsL4 (GeneID 34401) | DRSC02849 | 5 |
| Hr96 (GeneID 42993) | DRSC16707 | 7 |
| und (GeneID 34294) | DRSC03629 | 1 |

9 entries from above, sorted by “mitotic cells, replicate 1”, high to low.
| gene knocked down | amplicon | mitotic cells, replicate 1 |
| --- | --- | --- |
| vih (GeneID 44118) | DRSC09778 | 390 |
| vih (GeneID 44118) | DRSC23625 | 176 |
| ctp (GeneID 31405) | DRSC18758 | 17 |
| FASN1 (GeneID 33524) | DRSC00268 | 11 |
| ctp (GeneID 31405) | DRSC25165 | 11 |
| FASN1 (GeneID 33524) | DRSC26498 | 9 |
| Lime (GeneID 36023) | DRSC06752 | 9 |
| l(3)76BDm (GeneID 40140) | DRSC11047 | 7 |
| Uros2 (GeneID 41908) | DRSC16505 | 3 |
